Values quoted from earlier work in patent publication US10001470B2, “Method, system and composition for optically inducing cardiomyocyte contraction” (Sanford-Burnham Medical Research Institute, priority 2009, dated 2018).
Some results were stated once for a whole list of compounds, not compound by compound.

Amino acid sequences for entries named in this document (tags omitted). A change or cut given only in a name is not applied to a line headed by its entry.
UniProt Q12809: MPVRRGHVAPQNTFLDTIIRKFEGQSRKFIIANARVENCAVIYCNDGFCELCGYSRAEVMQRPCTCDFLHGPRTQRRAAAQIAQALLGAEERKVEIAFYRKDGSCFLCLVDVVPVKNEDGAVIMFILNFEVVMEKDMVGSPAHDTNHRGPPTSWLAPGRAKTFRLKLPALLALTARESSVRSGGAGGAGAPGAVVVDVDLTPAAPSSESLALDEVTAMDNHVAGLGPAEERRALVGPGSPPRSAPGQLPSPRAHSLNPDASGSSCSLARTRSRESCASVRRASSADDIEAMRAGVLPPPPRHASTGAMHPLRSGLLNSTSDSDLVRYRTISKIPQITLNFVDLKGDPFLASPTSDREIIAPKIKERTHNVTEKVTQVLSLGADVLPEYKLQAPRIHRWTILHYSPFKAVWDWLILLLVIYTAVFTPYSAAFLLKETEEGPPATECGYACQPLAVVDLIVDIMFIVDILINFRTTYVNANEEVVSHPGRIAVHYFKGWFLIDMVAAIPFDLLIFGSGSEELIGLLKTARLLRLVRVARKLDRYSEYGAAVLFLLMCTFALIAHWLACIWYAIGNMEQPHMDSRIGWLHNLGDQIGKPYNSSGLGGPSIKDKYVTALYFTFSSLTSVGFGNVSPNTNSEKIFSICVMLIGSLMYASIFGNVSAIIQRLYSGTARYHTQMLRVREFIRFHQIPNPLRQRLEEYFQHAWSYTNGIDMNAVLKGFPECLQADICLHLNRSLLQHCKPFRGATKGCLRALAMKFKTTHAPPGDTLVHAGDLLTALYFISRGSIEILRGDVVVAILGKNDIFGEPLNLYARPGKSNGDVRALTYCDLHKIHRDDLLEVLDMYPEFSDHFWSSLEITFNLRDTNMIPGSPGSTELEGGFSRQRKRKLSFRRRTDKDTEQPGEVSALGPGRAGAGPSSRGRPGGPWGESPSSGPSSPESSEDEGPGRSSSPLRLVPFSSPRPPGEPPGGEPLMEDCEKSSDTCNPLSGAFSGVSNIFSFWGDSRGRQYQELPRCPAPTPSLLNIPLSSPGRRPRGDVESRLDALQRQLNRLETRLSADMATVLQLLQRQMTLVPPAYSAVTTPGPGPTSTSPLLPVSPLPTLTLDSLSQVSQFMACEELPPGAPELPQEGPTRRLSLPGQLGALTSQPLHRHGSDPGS

Target: hERG K^+ channel (Homo sapiens, UniProt Q12809)
Conditions: read-out: hERG IC50; known hERG blockers proposed for assay validation; cited from earlier work

arsenic trioxide
IC50: > 300 µM
